These are yes or no findings as the source states them, for the method shown. For some assays here: In cells and extracts the contact can be indirect. Some binding calls cover weakened binding; strength is not graded here.
Legend:
[1] = target: STAT3 (human (endogenous in human vascular endothelial cells)) (UniProt P40763); experiment: Re-ChIP; human vascular endothelial cells treated with TGF-β for 72 h; chromatin cross-linked with 1% formaldehyde; immune complexes eluted and precipitated with a second antibody; read on the Twist1 promoter
[2] = target: STAT3 (human (endogenous in human vascular endothelial cells)) (UniProt P40763); experiment: co-IP; lysates extracted from human vascular endothelial cells; 'indicated antibodies'; endogenous proteins

By UniProt entry, the sequences of proteins in these tests, tags left out.
UniProt P40763: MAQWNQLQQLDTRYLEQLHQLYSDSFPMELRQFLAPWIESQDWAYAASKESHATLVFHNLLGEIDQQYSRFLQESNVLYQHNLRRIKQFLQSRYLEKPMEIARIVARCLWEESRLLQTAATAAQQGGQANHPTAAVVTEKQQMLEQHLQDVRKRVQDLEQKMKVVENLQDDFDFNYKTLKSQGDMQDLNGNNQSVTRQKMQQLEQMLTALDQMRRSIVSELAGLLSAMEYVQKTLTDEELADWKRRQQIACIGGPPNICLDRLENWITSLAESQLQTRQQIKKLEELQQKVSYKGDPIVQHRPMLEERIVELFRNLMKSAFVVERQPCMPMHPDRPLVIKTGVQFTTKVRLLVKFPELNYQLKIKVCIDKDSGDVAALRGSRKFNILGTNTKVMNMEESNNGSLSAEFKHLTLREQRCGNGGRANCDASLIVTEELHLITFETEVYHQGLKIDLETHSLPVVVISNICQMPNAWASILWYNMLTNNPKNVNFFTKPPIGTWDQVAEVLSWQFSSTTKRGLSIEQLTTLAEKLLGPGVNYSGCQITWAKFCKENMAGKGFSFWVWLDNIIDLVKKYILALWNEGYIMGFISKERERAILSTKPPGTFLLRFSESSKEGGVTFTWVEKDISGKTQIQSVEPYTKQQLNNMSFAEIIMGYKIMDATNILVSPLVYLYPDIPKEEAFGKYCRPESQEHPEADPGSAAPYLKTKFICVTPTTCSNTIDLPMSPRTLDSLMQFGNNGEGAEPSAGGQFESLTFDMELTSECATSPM

B1: Megakaryocytic leukemia 1 (MKL1) (protein, UniProt Q969V6 1-931)
chain: MPPLKSPAAFHEQRRSLERARTEDYLKRKIRSRPERSELVRMHILEETSAEPSLQAKQLKLKRARLADDLNEKIAQRPGPMELVEKNILPVESSLKEAIIVGQVNYPKVADSSSFDEDSSDALSPEQPASHESQGSVPSPLEARVSEPLLSATSASPTQVVSQLPMGRDSREMLFLAEQPPLPPPPLLPPSLTNGTTIPTAKSTPTLIKQSQPKSASEKSQRSKKAKELKPKVKKLKYHQYIPPDQKQDRGAPPMDSSYAKILQQQQLFLQLQILNQQQQQHHNYQAILPAPPKSAGEALGSSGTPPVRSLSTTNSSSSSGAPGPCGLARQNSTSLTGKPGALPANLDDMKVAELKQELKLRSLPVSGTKTELIERLRAYQDQISPVPGAPKAPAATSILHKAGEVVVAFPAARLSTGPALVAAGLAPAEVVVATVASSGVVKFGSTGSTPPVSPTPSERSLLSTGDENSTPGDTFGEMVTSPLTQLTLQASPLQILVKEEGPRAGSCCLSPGGRAELEGRDKDQMLQEKDKQIEALTRMLRQKQQLVERLKLQLEQEKRAQQPAPAPAPLGTPVKQENSFSSCQLSQQPLGPAHPFNPSLAAPATNHIDPCAVAPGPPSVVVKQEALQPEPEPVPAPQLLLGPQGPSLIKGVAPPTLITDSTGTHLVLTVTNKNADSPGLSSGSPQQPSSQPGSPAPAPSAQMDLEHPLQPLFGTPTSLLKKEPPGYEEAMSQQPKQQENGSSSQQMDDLFDILIQSGEISADFKEPPSLPGKEKPSPKTVCGSPLAAQPSPSAELPQAAPPPPGSPSLPGRLEDFLESSTGLPLLTSGHDGPEPLSLIDDLHSQMLSSTAILDHPPSPMDTSELHFVPEPSSTMGLDLADGHLDSMDWLELSSGGPVLSLAPLSTTAPSLFSTDFLDGHDLQLHWDSCL
In the case of B1, the binding [1] is reported as “binds” and the binding [2] is reported as “binds”.

Reference: article PMC6881349
